From the supplement of paper PMC10849652
Some of the results follow.

Amino acid sequences for entries named in this document (tags omitted). A change or cut given only in a name is not applied to a line headed by its entry.
UniProt Q86WQ0: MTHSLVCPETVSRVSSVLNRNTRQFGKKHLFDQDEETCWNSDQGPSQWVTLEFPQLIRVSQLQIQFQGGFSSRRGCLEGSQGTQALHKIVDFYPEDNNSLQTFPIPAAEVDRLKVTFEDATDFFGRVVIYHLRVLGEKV
UniProt Q9BVI4: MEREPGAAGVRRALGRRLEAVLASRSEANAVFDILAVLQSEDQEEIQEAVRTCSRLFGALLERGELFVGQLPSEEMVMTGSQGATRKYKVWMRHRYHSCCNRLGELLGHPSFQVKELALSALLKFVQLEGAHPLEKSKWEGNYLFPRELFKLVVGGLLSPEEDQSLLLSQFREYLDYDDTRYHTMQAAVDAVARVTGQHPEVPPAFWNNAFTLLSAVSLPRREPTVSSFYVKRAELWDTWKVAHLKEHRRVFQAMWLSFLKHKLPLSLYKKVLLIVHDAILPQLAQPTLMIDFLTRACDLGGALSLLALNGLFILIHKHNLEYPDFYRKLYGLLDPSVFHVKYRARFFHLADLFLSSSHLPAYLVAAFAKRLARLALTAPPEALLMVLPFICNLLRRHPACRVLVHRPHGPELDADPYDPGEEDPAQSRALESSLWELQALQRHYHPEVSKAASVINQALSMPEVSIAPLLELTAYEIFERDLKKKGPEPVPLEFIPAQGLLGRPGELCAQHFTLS
UniProt Q8WV22: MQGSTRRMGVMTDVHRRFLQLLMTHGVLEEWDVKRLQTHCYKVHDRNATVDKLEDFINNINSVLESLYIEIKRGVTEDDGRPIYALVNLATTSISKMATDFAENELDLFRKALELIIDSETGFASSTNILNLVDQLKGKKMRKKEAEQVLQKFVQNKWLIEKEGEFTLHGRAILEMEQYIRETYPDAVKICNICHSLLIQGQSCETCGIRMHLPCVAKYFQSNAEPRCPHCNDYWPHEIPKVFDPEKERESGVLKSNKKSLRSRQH
UniProt Q86UY8: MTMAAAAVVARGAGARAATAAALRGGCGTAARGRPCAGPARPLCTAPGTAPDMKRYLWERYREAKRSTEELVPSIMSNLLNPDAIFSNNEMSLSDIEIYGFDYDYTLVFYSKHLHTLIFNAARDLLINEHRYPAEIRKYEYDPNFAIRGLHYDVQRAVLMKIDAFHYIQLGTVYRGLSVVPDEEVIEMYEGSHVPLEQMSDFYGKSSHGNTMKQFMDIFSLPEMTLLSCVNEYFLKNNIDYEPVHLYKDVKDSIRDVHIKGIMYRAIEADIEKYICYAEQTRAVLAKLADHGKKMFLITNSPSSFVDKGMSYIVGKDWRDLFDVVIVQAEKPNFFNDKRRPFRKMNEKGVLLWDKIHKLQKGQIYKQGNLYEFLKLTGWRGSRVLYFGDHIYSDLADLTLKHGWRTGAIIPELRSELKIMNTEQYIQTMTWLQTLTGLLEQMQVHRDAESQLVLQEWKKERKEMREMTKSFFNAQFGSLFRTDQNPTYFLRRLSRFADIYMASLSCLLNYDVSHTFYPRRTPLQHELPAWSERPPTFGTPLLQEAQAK
UniProt Q9H1E3: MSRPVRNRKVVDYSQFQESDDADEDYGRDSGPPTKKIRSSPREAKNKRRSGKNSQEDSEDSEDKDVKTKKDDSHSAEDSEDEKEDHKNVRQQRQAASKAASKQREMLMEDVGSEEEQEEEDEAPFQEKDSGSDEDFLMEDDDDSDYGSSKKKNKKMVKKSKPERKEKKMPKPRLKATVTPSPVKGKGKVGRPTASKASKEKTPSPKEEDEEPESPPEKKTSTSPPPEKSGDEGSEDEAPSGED
UniProt Q9ULX3: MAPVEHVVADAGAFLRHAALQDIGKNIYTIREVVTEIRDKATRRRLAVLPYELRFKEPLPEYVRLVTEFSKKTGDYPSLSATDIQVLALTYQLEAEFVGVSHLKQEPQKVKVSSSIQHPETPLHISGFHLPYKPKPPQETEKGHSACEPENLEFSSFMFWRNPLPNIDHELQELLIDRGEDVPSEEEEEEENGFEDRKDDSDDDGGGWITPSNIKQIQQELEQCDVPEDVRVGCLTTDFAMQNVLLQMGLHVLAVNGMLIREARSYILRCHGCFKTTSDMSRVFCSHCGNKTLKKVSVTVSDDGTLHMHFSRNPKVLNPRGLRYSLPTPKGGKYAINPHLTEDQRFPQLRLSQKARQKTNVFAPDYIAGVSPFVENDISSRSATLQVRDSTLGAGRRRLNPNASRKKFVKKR
UniProt Q13232: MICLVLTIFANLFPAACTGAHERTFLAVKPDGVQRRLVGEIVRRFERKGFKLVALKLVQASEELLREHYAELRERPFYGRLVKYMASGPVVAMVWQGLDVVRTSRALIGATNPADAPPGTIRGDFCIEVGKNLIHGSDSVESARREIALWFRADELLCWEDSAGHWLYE
UniProt P49902: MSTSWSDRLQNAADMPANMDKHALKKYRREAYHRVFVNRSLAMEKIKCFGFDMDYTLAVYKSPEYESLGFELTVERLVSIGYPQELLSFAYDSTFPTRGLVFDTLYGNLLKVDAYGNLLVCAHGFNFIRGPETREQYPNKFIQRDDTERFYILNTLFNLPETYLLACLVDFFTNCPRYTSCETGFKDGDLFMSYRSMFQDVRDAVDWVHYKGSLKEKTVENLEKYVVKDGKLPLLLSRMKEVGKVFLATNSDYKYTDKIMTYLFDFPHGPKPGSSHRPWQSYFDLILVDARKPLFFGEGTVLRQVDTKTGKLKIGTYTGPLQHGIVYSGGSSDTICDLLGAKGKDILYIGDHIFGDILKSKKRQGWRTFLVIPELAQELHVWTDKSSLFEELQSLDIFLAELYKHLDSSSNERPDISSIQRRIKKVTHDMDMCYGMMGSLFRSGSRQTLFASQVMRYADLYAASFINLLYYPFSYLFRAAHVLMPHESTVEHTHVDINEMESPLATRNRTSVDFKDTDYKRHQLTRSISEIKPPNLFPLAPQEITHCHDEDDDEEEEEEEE
UniProt P46087: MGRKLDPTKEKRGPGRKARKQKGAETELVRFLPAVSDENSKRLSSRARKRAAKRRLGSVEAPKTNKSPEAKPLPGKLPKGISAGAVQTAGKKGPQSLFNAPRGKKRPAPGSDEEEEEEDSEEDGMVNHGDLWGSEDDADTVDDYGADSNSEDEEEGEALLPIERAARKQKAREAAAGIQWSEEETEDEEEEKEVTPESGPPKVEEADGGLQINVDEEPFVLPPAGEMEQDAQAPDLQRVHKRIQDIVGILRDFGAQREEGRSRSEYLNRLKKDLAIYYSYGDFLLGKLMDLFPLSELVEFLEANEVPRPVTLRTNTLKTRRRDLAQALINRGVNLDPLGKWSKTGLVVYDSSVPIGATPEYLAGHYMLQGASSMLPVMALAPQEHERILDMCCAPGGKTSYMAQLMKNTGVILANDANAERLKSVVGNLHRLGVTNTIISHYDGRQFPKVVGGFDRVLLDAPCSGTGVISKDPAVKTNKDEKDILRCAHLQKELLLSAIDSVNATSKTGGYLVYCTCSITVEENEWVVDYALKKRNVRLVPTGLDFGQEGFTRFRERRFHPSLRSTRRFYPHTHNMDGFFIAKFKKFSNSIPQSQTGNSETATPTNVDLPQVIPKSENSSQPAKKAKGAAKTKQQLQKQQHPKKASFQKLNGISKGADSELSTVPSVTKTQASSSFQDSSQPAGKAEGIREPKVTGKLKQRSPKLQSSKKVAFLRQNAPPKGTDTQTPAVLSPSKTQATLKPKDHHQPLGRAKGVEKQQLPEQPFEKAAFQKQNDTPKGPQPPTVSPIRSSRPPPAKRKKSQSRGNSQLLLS
UniProt O60551: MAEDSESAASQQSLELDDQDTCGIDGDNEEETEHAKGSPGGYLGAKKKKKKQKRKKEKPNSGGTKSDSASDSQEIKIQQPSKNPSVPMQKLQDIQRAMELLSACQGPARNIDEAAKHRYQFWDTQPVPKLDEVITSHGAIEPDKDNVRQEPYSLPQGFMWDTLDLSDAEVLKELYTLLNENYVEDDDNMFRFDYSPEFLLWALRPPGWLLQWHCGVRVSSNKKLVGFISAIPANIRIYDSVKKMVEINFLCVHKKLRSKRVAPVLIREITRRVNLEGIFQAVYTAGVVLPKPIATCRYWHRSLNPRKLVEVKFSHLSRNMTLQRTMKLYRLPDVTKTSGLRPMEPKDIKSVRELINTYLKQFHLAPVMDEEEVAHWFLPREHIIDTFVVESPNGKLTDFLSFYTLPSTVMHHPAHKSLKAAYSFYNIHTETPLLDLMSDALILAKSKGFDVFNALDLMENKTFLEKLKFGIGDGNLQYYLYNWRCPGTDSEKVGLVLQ
UniProt Q14978: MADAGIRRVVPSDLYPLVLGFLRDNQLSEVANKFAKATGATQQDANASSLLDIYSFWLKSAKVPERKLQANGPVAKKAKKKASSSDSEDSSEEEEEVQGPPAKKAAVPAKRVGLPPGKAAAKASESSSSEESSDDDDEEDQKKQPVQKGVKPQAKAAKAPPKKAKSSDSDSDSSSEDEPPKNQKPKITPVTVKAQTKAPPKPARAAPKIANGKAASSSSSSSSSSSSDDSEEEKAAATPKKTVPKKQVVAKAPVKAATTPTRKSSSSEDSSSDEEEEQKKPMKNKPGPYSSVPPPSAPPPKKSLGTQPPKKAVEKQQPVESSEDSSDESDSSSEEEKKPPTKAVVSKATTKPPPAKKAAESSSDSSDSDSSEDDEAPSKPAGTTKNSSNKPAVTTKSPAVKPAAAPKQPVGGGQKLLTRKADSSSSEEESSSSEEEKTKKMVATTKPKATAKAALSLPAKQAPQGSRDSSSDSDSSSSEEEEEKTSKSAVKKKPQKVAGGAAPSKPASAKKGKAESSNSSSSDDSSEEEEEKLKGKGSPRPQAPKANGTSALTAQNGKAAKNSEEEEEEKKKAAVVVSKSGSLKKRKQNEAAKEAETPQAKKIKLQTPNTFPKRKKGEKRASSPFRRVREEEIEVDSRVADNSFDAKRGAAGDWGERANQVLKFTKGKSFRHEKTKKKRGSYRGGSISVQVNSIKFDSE
UniProt O00567: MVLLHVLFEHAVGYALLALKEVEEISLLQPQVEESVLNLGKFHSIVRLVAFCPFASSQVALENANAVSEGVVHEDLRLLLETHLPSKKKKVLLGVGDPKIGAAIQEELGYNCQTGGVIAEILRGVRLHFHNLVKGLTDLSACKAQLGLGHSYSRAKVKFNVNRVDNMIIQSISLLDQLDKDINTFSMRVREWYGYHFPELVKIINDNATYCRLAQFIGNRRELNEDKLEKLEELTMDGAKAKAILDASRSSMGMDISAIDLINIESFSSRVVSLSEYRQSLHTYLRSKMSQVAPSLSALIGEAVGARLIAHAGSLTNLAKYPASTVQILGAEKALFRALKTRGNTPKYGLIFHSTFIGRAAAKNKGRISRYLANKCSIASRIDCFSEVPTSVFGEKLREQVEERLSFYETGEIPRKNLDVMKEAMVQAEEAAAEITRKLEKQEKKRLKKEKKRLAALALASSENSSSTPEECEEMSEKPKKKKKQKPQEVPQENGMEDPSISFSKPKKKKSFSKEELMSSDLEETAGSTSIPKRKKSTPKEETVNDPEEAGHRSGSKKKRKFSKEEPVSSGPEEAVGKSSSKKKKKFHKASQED
UniProt Q9UGY1: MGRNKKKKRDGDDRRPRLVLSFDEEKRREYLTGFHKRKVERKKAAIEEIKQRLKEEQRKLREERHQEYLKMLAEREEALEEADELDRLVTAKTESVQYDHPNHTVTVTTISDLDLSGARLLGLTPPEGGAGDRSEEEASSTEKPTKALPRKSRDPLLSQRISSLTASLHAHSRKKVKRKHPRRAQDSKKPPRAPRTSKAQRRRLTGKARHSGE
UniProt O43809, whole entry, looked up: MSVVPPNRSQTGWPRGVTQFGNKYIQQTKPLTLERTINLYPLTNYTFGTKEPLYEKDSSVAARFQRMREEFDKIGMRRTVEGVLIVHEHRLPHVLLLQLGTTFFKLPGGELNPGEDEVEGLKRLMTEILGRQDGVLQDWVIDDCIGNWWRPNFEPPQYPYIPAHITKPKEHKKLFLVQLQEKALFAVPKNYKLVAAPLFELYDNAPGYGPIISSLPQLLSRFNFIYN

Columns and labels:
Assay in all cases: log2 fold change, soluble protein after heating vs DMSO (PISA); higher = thermal stabilisation; K562 lysate, 10 uM; active = over 0.2 and 3.5 SD of the protein, either way, in both replicates (recomputed)
[1] = compound: C#Cc1cccc(Nc2ncnc3cc(OCCOC)c(OCCOC)cc23)c1 [erlotinib]
Outline: (§1)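 The values are log-two fold changes in thermal stability compared with solvent controls and come from duplicates. They were obtained by TMTpro 16plex LC-MS/MS, with channel sums equalised, on the supernatant after 21,000xg for 90 min. That supernatant came from crude K562 extract at 1 mg/mL protein treated with 10 μM compound for 30 min, heated for 3 min across 48°C-58°C, pooled and brought to 0.5% NP-40 at 4°C.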

[2] = compound: C/C(=N\NC(=O)C1=CC(=CC=C1)S(=O)(=O)N2CCOCC2)/C3=C(C=CC(=C3)Cl)O
Outline: as §1

[3] = compound: C1=CC(=CC=C1C2=NC3=C(N2)C=C(C=C3)C(=O)N)OC4=CC=C(C=C4)Cl
Outline: as §1

[4] = compound: C1=CC2=C(C=CC(=C2)/C=C\3/C(=O)NC(=NCC4=CC=CS4)S3)N=C1
Outline: as §1

[5] = compound: C1=CC2=NC=CN=C2C=C1/C=C/3\C(=O)NC(=O)S3
Outline: as §1

[6] = compound: C1=CC=C(C=C1)C2=NC(=C(N2)C3=CC=NC=C3)C4=CC(=C(C=C4)Cl)O
Outline: as §1

[7] = compound: C1=CC=C2C(=C1)C3=NNC4=CC=CC(=C43)C2=O
Outline: as §1

[8] = compound: C1CCN(C1)C(=O)NC2=CC=CC(=C2)NC3=NC=C(C(=N3)NCCC4=CN=CN4)Br
Outline: as §1

[9] = compound: C1CN(CCC1(CC2=CC=C(C=C2)Cl)N)C3=NC=NC4=C3C=CN4
Outline: as §1

[10] = compound: C1COCCN1CCN2C3=CC=CC=C3N=C2NC(=O)C4=CC(=CC=C4)[N+](=O)[O-] [IRAK-1-4 Inhibitor I]
Outline: as §1

[11] = compound: C=CC(=O)N1CCC[C@@H](n2nc(-c3ccc(Oc4ccccc4)cc3)c3c(N)ncnc32)C1 [ibrutinib]
Outline: as §1

[12] = compound: CC(=O)c1cnc2ccc(-c3cc(Cl)c(O)c(Cl)c3)nc2c1N[C@H]1CC[C@H](CN(C)C)CC1
Outline: as §1

[13] = compound: CC(C)(C)Cn1c(N)nc2ccc(-c3[nH]c(C(C)(C)C)nc3-c3ccc(F)cc3)nc21 [ralimetinib]
Outline: as §1

[14] = compound: CC(C)(O)CC(=O)NCCn1ccc2ncnc(Nc3ccc(Oc4cccc(C(F)(F)F)c4)c(Cl)c3)c21
Outline: as §1

[15] = compound: CC(C)C1=C2N=C(C=C(N2N=C1)NCC3=CC=CC=C3)NCCCCCCN
Outline: as §1

[16] = compound: CC1=C(C(CC(=O)N1)C2=CC=C(C=C2)C(F)(F)F)C(=O)NC3=C(C=C4C(=C3)C=NN4)F
Outline: as §1

[17] = compound: CC1=C(C2=C(C=C1)C(=O)C3=CC=CC=C3N2CCCN)C
Outline: as §1

[18] = compound: CC1=C(C=C(C=C1)NC(=O)C2=CC(=CC=C2)C(C)(C)C#N)NC3=CC4=C(C=C3)N=CN(C4=O)C
Outline: as §1

[19] = compound: CC1=C(C=C(C=C1)NC(=O)C2=CC(=CC=C2)N(C)C)NC(=O)C3=CC=C(C=C3)O
Outline: as §1

[20] = compound: CC1=CC=C(C=C1)SC2=C3C=C(SC3=CN=C2)C(=O)N
Outline: as §1

Measured: log2 fold change

NR2C2AP isoform 2 (UniProt Q86WQ0)
inactive: [1] -0.063 | [2] -0.022 | [3] -0.006 | [4] -0.042 | [5] 0.077 | [6] 0.011 | [7] -0.043 | [8] 0.091 | [9] 0.047 | [10] 0.004 | [11] 0.005 | [12] -0.028 | [13] 0.005 | [14] -0.028 | [15] 0.005 | [16] 0.026 | [17] 0.097 | [18] 0.043 | [19] -0.048 | [20] -0.004

NOC4L (UniProt Q9BVI4)
inactive: [1] -0.014 | [2] 0.032 | [3] -0.055 | [4] -0.041 | [5] 0.045 | [6] -0.011 | [7] -0.063 | [8] -0.024 | [9] -0.079 | [10] -0.018 | [11] 0.001 | [12] -0.026 | [13] 0.021 | [14] 0.049 | [15] 0.089 | [16] 0.018 | [17] -0.024 | [18] -0.017 | [19] 0.006 | [20] 0.039

NSMCE1 (UniProt Q8WV22)
inactive: [1] -0.02 | [2] 0.029 | [3] 0.021 | [4] -0.048 | [5] -0.005 | [6] 0.073 | [7] -0.008 | [8] -0.006 | [9] -0.065 | [10] 0.006 | [11] 0.098 | [12] 0.022 | [13] -0.031 | [14] 0.003 | [15] -0.001 | [16] -0.011 | [17] 0.016 | [18] 0.027 | [19] 0.018 | [20] -0.02

NUP155 (UniProt O75694)
inactive: [1] -0.039 | [2] 0.046 | [3] 0.027 | [4] -0.035 | [5] -0.055 | [6] -0.056 | [7] -0.085 | [8] 0.037 | [9] 0.049 | [10] -0.002 | [11] -0.004 | [12] -0.015 | [13] 0.122 | [14] -0.059 | [15] -0.009 | [16] 0.043 | [17] -0.051 | [18] -0.036 | [19] 0 | [20] -0.035

NT5DC3 (UniProt Q86UY8)
inactive: [1] -0.011 | [2] -0.032 | [3] 0.029 | [4] -0.007 | [5] 0.017 | [6] 0.003 | [7] 0.011 | [8] 0.01 | [9] 0.024 | [10] 0.011 | [11] -0.042 | [12] 0.019 | [13] 0.013 | [14] -0.048 | [15] -0.012 | [16] -0.032 | [17] -0.013 | [18] -0.03 | [19] 0.019 | [20] 0.009

NUCKS1 (UniProt Q9H1E3)
inactive: [1] 0.009 | [2] 0.009 | [3] 0.029 | [4] 0.037 | [5] 0.009 | [6] 0.007 | [7] -0.028 | [8] 0.021 | [9] 0.013 | [10] 0.032 | [11] -0.017 | [12] -0.002 | [13] -0.022 | [14] -0.048 | [15] -0.007 | [16] -0.033 | [17] 0.001 | [18] -0.009 | [19] 0.009 | [20] -0.026

Random excerpt: 2 records from the list
NUCKS1 (UniProt Q9H1E3)
inactive: [1] 0.009 | [2] 0.009 | [3] 0.029 | [4] 0.037 | [5] 0.009 | [6] 0.007 | [7] -0.028 | [8] 0.021 | [9] 0.013 | [10] 0.032 | [11] -0.017 | [12] -0.002 | [13] -0.022 | [14] -0.048 | [15] -0.007 | [16] -0.033 | [17] 0.001 | [18] -0.009 | [19] 0.009 | [20] -0.026

NUP155 (UniProt O75694)
inactive: [1] -0.039 | [2] 0.046 | [3] 0.027 | [4] -0.035 | [5] -0.055 | [6] -0.056 | [7] -0.085 | [8] 0.037 | [9] 0.049 | [10] -0.002 | [11] -0.004 | [12] -0.015 | [13] 0.122 | [14] -0.059 | [15] -0.009 | [16] 0.043 | [17] -0.051 | [18] -0.036 | [19] 0 | [20] -0.035

(next part)

NOB1 (UniProt Q9ULX3)
inactive: [1] 0.011 | [2] -0.028 | [3] 0.012 | [4] -0.016 | [5] -0.02 | [6] 0.023 | [7] -0.016 | [8] -0.016 | [9] -0.027 | [10] 0.011 | [11] -0.005 | [12] 0.018 | [13] -0.028 | [14] 0.014 | [15] 0.013 | [16] -0.001 | [17] -0.046 | [18] 0.03 | [19] 0.019 | [20] 0.004

NNT (UniProt Q13423)
inactive: [1] -0.027 | [2] 0.013 | [3] -0.014 | [4] -0.012 | [5] -0.006 | [6] -0.008 | [7] -0.033 | [8] 0 | [9] 0.031 | [10] -0.026 | [11] 0.012 | [12] -0.016 | [13] -0.095 | [14] -0.01 | [15] -0.05 | [16] -0.011 | [17] -0.019 | [18] -0.007 | [19] 0.01 | [20] -0.009

NME3 (UniProt Q13232)
inactive: [1] 0.02 | [2] 0.019 | [3] 0.052 | [4] 0.027 | [5] 0.129 | [6] -0.017 | [7] -0.071 | [8] 0.016 | [9] 0.012 | [10] -0.012 | [11] -0.04 | [12] 0.012 | [13] -0.043 | [14] -0.025 | [15] -0.046 | [16] 0.022 | [17] -0.043 | [18] 0.007 | [19] 0.011 | [20] -0.019

NT5C2 (UniProt P49902)
inactive: [1] 0.007 | [2] 0.015 | [3] -0.026 | [4] 0.015 | [5] -0.001 | [6] -0.014 | [7] -0.007 | [8] -0.001 | [9] 0.01 | [10] 0.059 | [11] 0.016 | [12] 0.028 | [13] -0.009 | [14] -0.015 | [15] -0.045 | [16] -0.019 | [17] 0.012 | [18] 0.021 | [19] -0.005 | [20] 0.004

NOP2 isoform 4 (UniProt P46087)
inactive: [1] -0.013 | [2] -0.076 | [3] -0.027 | [4] -0.013 | [5] -0.024 | [6] -0.016 | [7] 0.037 | [8] 0.064 | [9] 0.005 | [10] 0.008 | [11] 0.025 | [12] 0.006 | [13] 0.017 | [14] -0.021 | [15] -0.003 | [16] 0.01 | [17] -0.028 | [18] 0.004 | [19] 0.001 | [20] 0.006

NMT2 (UniProt O60551)
inactive: [1] 0.024 | [2] -0.025 | [3] 0.094 | [4] 0.006 | [5] -0.007 | [6] -0.003 | [7] 0.001 | [8] 0.011 | [9] -0.062 | [10] 0.052 | [11] -0.012 | [12] 0 | [13] -0.019 | [14] -0.016 | [15] 0.005 | [16] -0.042 | [17] -0.007 | [18] -0.007 | [19] 0.018 | [20] 0.026

NOLC1 isoform 2 (UniProt Q14978)
inactive: [1] -0.015 | [2] 0.006 | [3] -0.013 | [4] -0.028 | [5] -0.071 | [6] 0.008 | [7] 0.029 | [8] 0.011 | [9] -0.016 | [10] 0.013 | [11] 0.011 | [12] -0.008 | [13] -0.01 | [14] -0.003 | [15] 0.013 | [16] -0.03 | [17] -0.027 | [18] 0.031 | [19] -0.016 | [20] -0.009

NOP56 (UniProt O00567)
inactive: [1] 0.016 | [2] 0.024 | [3] -0.023 | [4] -0.014 | [5] 0.01 | [6] 0.045 | [7] 0.054 | [8] 0.009 | [9] -0.052 | [10] -0.037 | [11] 0.043 | [12] 0.017 | [13] 0.018 | [14] -0.013 | [15] -0.009 | [16] -0.009 | [17] -0.026 | [18] 0.006 | [19] -0.004 | [20] 0.022

NOL12 (UniProt Q9UGY1)
inactive: [1] -0.163 | [2] 0.039 | [3] -0.082 | [4] 0.045 | [5] -0.043 | [6] -0.014 | [7] 0.052 | [8] 0.049 | [9] -0.041 | [10] -0.01 | [11] 0.099 | [12] 0.003 | [13] 0.11 | [14] 0.077 | [15] -0.034 | [16] -0.22 | [17] -0.044 | [18] 0.099 | [19] -0.024 | [20] 0.026

NUDT21 (UniProt O43809)
inactive: [1] 0 | [2] -0.024 | [3] -0.004 | [4] 0.002 | [5] -0.017 | [6] -0.022 | [7] 0.006 | [8] -0.009 | [9] 0.014 | [10] -0.006 | [11] -0.001 | [12] 0.02 | [13] -0.013 | [14] -0.009 | [15] 0.011 | [16] -0.029 | [17] 0.005 | [18] -0.099 | [19] -0.03 | [20] 0
